Measured values from the supplement of paper PMC12823440, “Inhibitors supercharge kinase turnover through native proteolytic circuits” (Nature, 2025).
This is one part of the list. Hit calls seldom repeat between salt and free forms of one compound.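 Kinases were expressed as nanoluciferase fusions in K562 cells and luminescence was read every 4 h between 2 and 18 h as percent of control, DMSO set to 100% and a positive control to 0%. A time point counts as decreased when the signal drops significantly (2 sigma). The hit call is the authors' own, does not follow from the count of time points alone, and its rule is not shown.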

By UniProt entry, the sequences of proteins in these tests, tags left out. Where a name states a change or a piece, a line headed by the entry shows the natural chain unless it says otherwise.
UniProt P53667: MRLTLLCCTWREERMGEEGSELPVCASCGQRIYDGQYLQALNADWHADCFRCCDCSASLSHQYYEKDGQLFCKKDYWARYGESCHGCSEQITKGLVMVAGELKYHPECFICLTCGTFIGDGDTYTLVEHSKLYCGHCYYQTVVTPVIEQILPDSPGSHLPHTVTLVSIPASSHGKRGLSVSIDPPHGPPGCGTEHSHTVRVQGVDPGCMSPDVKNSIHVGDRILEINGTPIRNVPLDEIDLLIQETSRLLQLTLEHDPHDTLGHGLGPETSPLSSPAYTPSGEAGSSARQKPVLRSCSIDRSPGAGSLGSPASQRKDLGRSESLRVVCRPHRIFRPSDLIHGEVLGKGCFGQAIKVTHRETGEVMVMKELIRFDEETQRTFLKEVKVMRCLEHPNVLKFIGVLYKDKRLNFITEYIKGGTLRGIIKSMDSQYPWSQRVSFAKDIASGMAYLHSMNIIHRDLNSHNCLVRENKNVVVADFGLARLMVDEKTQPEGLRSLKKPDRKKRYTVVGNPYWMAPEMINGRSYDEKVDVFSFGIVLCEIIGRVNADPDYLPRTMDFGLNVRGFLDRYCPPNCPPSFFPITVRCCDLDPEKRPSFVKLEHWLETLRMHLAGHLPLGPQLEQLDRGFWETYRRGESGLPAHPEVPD
UniProt P53671: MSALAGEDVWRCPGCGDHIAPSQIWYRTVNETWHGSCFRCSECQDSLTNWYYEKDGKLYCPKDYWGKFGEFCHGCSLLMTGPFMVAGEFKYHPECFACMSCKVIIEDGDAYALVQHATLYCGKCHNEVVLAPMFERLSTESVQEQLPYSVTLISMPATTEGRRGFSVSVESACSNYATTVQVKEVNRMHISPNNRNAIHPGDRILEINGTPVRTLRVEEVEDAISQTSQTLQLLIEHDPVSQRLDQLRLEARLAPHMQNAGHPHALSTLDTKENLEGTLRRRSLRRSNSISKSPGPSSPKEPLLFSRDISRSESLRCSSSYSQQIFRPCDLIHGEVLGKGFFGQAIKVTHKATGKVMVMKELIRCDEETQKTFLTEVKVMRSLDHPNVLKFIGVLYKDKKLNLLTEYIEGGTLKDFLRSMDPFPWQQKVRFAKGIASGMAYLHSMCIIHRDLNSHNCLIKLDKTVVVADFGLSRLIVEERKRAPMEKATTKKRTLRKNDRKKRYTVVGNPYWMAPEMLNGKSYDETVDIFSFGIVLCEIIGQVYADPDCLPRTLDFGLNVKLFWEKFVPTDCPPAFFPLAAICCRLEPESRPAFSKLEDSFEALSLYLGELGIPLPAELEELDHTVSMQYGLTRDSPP
UniProt Q12851: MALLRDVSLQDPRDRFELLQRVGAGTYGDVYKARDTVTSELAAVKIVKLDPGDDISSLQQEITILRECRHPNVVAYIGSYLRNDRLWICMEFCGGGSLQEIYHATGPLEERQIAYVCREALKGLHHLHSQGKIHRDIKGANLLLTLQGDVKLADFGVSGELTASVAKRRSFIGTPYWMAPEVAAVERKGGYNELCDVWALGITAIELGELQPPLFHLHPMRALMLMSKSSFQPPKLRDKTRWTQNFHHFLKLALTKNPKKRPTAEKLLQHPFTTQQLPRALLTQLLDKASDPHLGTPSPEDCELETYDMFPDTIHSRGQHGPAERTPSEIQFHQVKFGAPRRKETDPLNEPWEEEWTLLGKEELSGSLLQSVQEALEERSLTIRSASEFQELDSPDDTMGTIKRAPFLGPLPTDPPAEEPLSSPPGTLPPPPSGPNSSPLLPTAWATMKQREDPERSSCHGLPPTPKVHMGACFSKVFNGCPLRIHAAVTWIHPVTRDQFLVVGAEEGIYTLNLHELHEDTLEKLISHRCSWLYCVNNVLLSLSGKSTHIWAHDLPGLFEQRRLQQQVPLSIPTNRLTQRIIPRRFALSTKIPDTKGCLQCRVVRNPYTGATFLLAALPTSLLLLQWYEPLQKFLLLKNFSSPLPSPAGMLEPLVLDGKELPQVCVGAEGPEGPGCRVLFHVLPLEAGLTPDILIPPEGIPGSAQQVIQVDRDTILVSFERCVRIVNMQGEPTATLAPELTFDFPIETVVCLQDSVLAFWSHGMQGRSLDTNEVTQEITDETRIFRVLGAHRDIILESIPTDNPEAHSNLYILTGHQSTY
UniProt P28482, whole entry: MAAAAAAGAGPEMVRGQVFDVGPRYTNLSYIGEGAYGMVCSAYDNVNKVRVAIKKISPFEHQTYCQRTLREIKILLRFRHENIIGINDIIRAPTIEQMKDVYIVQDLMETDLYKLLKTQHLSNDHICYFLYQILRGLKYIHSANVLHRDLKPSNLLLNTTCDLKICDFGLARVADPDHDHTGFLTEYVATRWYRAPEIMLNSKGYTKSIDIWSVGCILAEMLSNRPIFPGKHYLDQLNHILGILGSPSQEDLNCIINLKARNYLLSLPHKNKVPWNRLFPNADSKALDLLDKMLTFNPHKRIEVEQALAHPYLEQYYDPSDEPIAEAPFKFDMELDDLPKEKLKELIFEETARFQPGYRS
UniProt P31152, whole entry: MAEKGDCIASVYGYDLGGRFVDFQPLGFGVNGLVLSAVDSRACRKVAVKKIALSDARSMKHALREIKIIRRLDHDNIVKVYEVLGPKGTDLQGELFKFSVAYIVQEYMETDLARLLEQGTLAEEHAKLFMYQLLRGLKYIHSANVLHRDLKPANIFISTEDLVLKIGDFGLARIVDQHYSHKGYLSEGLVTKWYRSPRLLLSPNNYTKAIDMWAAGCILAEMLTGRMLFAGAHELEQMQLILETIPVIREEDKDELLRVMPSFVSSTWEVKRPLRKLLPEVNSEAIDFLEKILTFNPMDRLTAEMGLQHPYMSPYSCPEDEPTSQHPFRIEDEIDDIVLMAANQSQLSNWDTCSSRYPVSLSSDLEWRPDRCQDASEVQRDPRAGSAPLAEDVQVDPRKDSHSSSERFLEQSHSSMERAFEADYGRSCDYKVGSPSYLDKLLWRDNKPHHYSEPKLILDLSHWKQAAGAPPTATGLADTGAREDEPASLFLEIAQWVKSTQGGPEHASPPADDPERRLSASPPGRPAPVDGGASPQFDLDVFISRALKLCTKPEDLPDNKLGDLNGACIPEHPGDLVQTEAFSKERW
UniProt Q9BUB5: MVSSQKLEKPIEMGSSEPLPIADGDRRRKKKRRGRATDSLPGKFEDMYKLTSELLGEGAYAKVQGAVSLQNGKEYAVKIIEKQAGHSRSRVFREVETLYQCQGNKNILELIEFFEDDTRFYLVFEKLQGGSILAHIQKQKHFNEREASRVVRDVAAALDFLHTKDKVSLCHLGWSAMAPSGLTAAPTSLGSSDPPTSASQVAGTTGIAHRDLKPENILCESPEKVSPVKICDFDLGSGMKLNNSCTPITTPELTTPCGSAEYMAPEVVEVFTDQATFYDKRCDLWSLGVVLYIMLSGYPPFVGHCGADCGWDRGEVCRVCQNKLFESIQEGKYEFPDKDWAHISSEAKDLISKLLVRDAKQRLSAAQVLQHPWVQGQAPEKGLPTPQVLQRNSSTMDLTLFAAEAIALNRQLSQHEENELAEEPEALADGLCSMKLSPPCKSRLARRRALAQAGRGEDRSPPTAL
UniProt Q16620, whole entry, looked up: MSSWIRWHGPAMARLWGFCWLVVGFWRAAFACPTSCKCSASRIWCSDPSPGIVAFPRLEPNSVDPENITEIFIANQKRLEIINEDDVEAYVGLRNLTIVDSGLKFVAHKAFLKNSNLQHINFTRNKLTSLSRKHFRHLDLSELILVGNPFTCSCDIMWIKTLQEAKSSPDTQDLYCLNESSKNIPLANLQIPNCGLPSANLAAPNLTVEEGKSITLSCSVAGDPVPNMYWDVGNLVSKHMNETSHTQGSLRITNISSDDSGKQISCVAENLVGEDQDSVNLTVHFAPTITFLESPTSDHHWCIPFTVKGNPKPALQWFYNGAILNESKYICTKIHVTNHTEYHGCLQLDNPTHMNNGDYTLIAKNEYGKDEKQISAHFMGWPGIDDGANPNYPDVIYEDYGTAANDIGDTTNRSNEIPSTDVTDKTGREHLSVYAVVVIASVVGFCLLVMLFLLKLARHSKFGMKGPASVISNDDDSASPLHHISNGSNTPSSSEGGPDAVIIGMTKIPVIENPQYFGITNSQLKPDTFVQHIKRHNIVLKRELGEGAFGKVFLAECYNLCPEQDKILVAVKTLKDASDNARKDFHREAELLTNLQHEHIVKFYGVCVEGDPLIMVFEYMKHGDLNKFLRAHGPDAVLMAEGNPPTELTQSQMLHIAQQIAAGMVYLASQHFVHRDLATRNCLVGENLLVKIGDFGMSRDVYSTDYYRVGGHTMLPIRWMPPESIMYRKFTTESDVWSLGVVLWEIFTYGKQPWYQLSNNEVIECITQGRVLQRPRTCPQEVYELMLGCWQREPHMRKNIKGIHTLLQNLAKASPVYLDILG
UniProt Q16288, whole entry, looked up: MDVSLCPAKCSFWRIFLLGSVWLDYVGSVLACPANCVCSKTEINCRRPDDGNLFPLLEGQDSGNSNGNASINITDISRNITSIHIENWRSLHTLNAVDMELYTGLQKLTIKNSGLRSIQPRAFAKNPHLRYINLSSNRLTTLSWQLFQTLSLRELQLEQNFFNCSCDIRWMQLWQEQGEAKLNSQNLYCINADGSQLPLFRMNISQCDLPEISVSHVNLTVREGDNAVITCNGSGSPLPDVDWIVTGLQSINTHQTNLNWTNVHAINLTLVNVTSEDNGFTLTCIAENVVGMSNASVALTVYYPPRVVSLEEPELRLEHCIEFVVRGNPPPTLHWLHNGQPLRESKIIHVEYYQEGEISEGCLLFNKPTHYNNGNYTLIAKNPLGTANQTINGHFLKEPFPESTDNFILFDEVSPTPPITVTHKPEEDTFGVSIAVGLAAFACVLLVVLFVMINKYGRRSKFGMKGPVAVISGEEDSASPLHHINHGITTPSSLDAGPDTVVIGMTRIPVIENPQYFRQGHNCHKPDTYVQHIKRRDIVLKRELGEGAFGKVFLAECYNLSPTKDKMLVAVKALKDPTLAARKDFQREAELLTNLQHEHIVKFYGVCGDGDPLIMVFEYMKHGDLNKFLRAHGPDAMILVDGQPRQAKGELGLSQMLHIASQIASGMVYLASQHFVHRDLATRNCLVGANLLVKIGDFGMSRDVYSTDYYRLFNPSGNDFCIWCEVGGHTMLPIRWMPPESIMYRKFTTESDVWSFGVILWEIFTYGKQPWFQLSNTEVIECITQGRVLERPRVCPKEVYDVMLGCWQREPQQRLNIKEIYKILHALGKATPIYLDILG
UniProt O96013: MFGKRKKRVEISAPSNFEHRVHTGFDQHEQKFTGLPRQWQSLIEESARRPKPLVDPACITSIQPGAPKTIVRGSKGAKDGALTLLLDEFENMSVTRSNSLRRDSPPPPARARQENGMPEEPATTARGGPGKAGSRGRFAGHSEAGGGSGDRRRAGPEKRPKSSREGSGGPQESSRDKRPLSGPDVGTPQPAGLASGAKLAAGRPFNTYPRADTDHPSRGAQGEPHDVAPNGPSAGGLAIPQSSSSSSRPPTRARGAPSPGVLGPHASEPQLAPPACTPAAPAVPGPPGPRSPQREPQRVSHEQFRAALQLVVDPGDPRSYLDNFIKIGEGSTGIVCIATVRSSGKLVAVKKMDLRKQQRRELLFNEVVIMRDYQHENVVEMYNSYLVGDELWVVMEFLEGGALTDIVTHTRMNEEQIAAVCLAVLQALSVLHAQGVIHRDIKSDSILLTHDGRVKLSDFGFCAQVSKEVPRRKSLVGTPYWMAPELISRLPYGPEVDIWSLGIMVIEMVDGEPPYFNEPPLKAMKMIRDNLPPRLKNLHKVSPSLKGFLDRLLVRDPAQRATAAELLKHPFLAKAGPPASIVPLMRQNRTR
UniProt Q96KB5: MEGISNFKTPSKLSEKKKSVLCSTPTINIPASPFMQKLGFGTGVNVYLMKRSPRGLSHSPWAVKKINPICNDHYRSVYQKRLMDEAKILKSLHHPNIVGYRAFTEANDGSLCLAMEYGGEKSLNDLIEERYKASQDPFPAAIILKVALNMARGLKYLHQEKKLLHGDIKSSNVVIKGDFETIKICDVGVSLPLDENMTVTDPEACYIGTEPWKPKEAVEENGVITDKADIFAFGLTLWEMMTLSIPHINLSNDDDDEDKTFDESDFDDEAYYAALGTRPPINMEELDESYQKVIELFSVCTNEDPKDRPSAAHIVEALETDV
UniProt Q15118, whole entry, looked up: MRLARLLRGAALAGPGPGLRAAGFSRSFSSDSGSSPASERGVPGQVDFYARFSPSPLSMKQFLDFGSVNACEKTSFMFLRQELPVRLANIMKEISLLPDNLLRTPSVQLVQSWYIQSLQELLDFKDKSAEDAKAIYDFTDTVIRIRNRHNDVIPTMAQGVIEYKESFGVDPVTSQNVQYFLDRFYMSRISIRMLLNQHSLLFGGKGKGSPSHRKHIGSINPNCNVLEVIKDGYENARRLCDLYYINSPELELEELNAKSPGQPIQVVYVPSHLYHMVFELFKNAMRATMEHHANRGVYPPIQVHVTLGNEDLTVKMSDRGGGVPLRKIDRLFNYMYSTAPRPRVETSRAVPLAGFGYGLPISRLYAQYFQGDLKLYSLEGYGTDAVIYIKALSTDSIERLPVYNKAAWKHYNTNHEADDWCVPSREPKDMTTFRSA

Experiments:
Assay in all cases: kinase-Nluc reporter destabilization hit call (1 = scored as downregulated) (binary); higher = compound decreases kinase abundance
Details in all cases: K562; 2-18 h
IRAK3 = IRAK3 (UniProt Q9Y616)
JAK1 = JAK1 (UniProt P23458)
LCK = LCK (UniProt P06239)
LIMK1 = LIMK1 (UniProt P53667)
LIMK2 = LIMK2 (UniProt P53671)
LMTK2 = LMTK2 (UniProt Q8IWU2)
LYN = LYN (UniProt P07948)
MAP2K1 = MAP2K1 (UniProt Q02750)
MAP2K2 = MAP2K2 (UniProt P36507)
MAP4K2 = MAP4K2 (UniProt Q12851)
MAPK1 = MAPK1 (UniProt P28482)
MAPK4 = MAPK4 (UniProt P31152)
MAPKAPK2 = MAPKAPK2 (UniProt P49137)
MKNK1 = MKNK1 (UniProt Q9BUB5)
NTRK2 = NTRK2 (UniProt Q16620)
NTRK3 = NTRK3 (UniProt Q16288)
PAK4 = PAK4 (UniProt O96013)
PBK = PBK (UniProt Q96KB5)
PDGFRB = PDGFRB (UniProt P09619)
PDK1 = PDK1 (UniProt Q15118)

Measured: kinase-Nluc reporter destabilization hit call

Cc1cnc(NC2CCOCC2)nc1-n1cnc(C(=O)N[C@H](CN)c2cc(F)cc(Cl)c2)c1 (10 µM)
inactive: IRAK3 = 0 | JAK1 = 0 | LCK 0 | LIMK1 = 0 | LIMK2 = 0 | LMTK2 = 0 | LYN 0 | MAP2K1 = 0 | MAP2K2 = 0 | MAP4K2 = 0 | MAPK1 = 0 | MAPK4 = 0 | MAPKAPK2 = 0 | MKNK1 = 0 | NTRK2 = 0 | NTRK3 = 0 | PAK4 = 0 | PBK 0 | PDGFRB 0 | PDK1 = 0

CC(C)(O)[C@H]1CC[C@H](Nc2ccc3ncc(-c4cccc(C(F)(F)F)c4)n3n2)CC1 (10 µM)
inactive: IRAK3 = 0 | JAK1 = 0 | LCK 0 | LIMK1 = 0 | LIMK2 = 0 | LMTK2 = 0 | LYN 0 | MAP2K1 = 0 | MAP2K2 = 0 | MAP4K2 = 0 | MAPK1 = 0 | MAPK4 = 0 | MAPKAPK2 = 0 | MKNK1 = 0 | NTRK2 = 0 | NTRK3 = 0 | PAK4 = 0 | PBK 0 | PDGFRB 0 | PDK1 = 0

Oc1ccc(/C=C/c2cc(O)cc(F)c2)cc1 [Resveratrol analog 1] (10 µM)
inactive: IRAK3 = 0 | JAK1 = 0 | LCK 0 | LIMK1 = 0 | LIMK2 = 0 | LMTK2 = 0 | LYN 0 | MAP2K1 = 0 | MAP2K2 = 0 | MAP4K2 = 0 | MAPK1 = 0 | MAPK4 = 0 | MAPKAPK2 = 0 | MKNK1 = 0 | NTRK2 = 0 | NTRK3 = 0 | PAK4 = 0 | PBK 0 | PDGFRB 0 | PDK1 = 0

CC(C)=CC(=O)O[C@H]1Cc2cc3ccc(=O)oc3cc2OC1(C)C [Decursin] (10 µM)
inactive: IRAK3 = 0 | JAK1 = 0 | LCK 0 | LIMK1 = 0 | LIMK2 = 0 | LMTK2 = 0 | LYN 0 | MAP2K1 = 0 | MAP2K2 = 0 | MAP4K2 = 0 | MAPK1 = 0 | MAPK4 = 0 | MAPKAPK2 = 0 | MKNK1 = 0 | NTRK2 = 0 | NTRK3 = 0 | PAK4 = 0 | PBK 0 | PDGFRB 0 | PDK1 = 0

Cc1nn(C)c2c1C(c1ccc(C(F)(F)F)cc1)C(C#N)=C(N)O2 (stereo not given) (10 µM)
inactive: IRAK3 = 0 | JAK1 = 0 | LCK 0 | LIMK1 = 0 | LIMK2 = 0 | LMTK2 = 0 | LYN 0 | MAP2K1 = 0 | MAP2K2 = 0 | MAP4K2 = 0 | MAPK1 = 0 | MAPK4 = 0 | MAPKAPK2 = 0 | MKNK1 = 0 | NTRK2 = 0 | NTRK3 = 0 | PAK4 = 0 | PBK 0 | PDGFRB 0 | PDK1 = 0

CC1(C)Cc2c(sc(NC(=S)NC(=O)c3ccccc3)c2C(=O)O)CO1 (10 µM)
inactive: IRAK3 = 0 | JAK1 = 0 | LCK 0 | LIMK1 = 0 | LIMK2 = 0 | LMTK2 = 0 | LYN 0 | MAP2K1 = 0 | MAP2K2 = 0 | MAP4K2 = 0 | MAPK1 = 0 | MAPK4 = 0 | MAPKAPK2 = 0 | MKNK1 = 0 | NTRK2 = 0 | NTRK3 = 0 | PAK4 = 0 | PBK 0 | PDGFRB 0 | PDK1 = 0

COc1ccc2cc3[n+](cc2c1OC)CCc1cc(O)c(O)cc1-3 [Demethyleneberberine] (10 µM)
inactive: IRAK3 = 0 | JAK1 = 0 | LCK 0 | LIMK1 = 0 | LIMK2 = 0 | LMTK2 = 0 | LYN 0 | MAP2K1 = 0 | MAP2K2 = 0 | MAP4K2 = 0 | MAPK1 = 0 | MAPK4 = 0 | MAPKAPK2 = 0 | MKNK1 = 0 | NTRK2 = 0 | NTRK3 = 0 | PAK4 = 0 | PBK 0 | PDGFRB 0 | PDK1 = 0

C=C[C@@](C)(/C=C/c1ccc(O)cc1)CCC=C(C)C [Bakuchiol] (10 µM)
inactive: IRAK3 = 0 | JAK1 = 0 | LCK 0 | LIMK1 = 0 | LIMK2 = 0 | LMTK2 = 0 | LYN 0 | MAP2K1 = 0 | MAP2K2 = 0 | MAP4K2 = 0 | MAPK1 = 0 | MAPK4 = 0 | MAPKAPK2 = 0 | MKNK1 = 0 | NTRK2 = 0 | NTRK3 = 0 | PAK4 = 0 | PBK 0 | PDGFRB 0 | PDK1 = 0

C=CC(=O)N1C[C@H](COc2nc(Nc3cnn(C)c3)nc3[nH]cc(Cl)c23)[C@@H](OC)C1 (2.5 µM)
inactive: IRAK3 = 0 | JAK1 = 0 | LCK 0 | LIMK1 = 0 | LIMK2 = 0 | LMTK2 = 0 | LYN 0 | MAP2K1 = 0 | MAP2K2 = 0 | MAP4K2 = 0 | MAPK1 = 0 | MAPK4 = 0 | MAPKAPK2 = 0 | MKNK1 = 0 | NTRK2 = 0 | NTRK3 = 0 | PAK4 = 0 | PBK 0 | PDGFRB 0 | PDK1 = 0

CC(=O)N1CCC(c2cc(-c3ccc(NC(=O)c4cccn(-c5ccc(F)cc5)c4=O)cc3F)c3c(N)ncnn23)CC1 (0.5 µM)
inactive: IRAK3 = 0 | JAK1 = 0 | LCK 0 | LIMK1 = 0 | LIMK2 = 0 | LMTK2 = 0 | LYN 0 | MAP2K1 = 0 | MAP2K2 = 0 | MAP4K2 = 0 | MAPK1 = 0 | MAPK4 = 0 | MAPKAPK2 = 0 | MKNK1 = 0 | NTRK2 = 0 | NTRK3 = 0 | PAK4 = 0 | PBK 0 | PDGFRB 0 | PDK1 = 0

O=[N+]([O-])c1ccc(Nc2nc(N3CCOCC3)nc(N3CCOCC3)n2)cc1 (10 µM)
inactive: IRAK3 = 0 | JAK1 = 0 | LCK 0 | LIMK1 = 0 | LIMK2 = 0 | LMTK2 = 0 | LYN 0 | MAP2K1 = 0 | MAP2K2 = 0 | MAP4K2 = 0 | MAPK1 = 0 | MAPK4 = 0 | MAPKAPK2 = 0 | MKNK1 = 0 | NTRK2 = 0 | NTRK3 = 0 | PAK4 = 0 | PBK 0 | PDGFRB 0 | PDK1 = 0

Some of these compounds in order of molar mass, low to high.
O=[N+]([O-])c1ccc(Nc2nc(N3CCOCC3)nc(N3CCOCC3)n2)cc1 (10 µM)
inactive: IRAK3 = 0 | JAK1 = 0 | LCK 0 | LIMK1 = 0 | LIMK2 = 0 | LMTK2 = 0 | LYN 0 | MAP2K1 = 0 | MAP2K2 = 0 | MAP4K2 = 0 | MAPK1 = 0 | MAPK4 = 0 | MAPKAPK2 = 0 | MKNK1 = 0 | NTRK2 = 0 | NTRK3 = 0 | PAK4 = 0 | PBK 0 | PDGFRB 0 | PDK1 = 0

CC(C)(O)[C@H]1CC[C@H](Nc2ccc3ncc(-c4cccc(C(F)(F)F)c4)n3n2)CC1 (10 µM)
inactive: IRAK3 = 0 | JAK1 = 0 | LCK 0 | LIMK1 = 0 | LIMK2 = 0 | LMTK2 = 0 | LYN 0 | MAP2K1 = 0 | MAP2K2 = 0 | MAP4K2 = 0 | MAPK1 = 0 | MAPK4 = 0 | MAPKAPK2 = 0 | MKNK1 = 0 | NTRK2 = 0 | NTRK3 = 0 | PAK4 = 0 | PBK 0 | PDGFRB 0 | PDK1 = 0

CC(=O)N1CCC(c2cc(-c3ccc(NC(=O)c4cccn(-c5ccc(F)cc5)c4=O)cc3F)c3c(N)ncnn23)CC1 (0.5 µM)
inactive: IRAK3 = 0 | JAK1 = 0 | LCK 0 | LIMK1 = 0 | LIMK2 = 0 | LMTK2 = 0 | LYN 0 | MAP2K1 = 0 | MAP2K2 = 0 | MAP4K2 = 0 | MAPK1 = 0 | MAPK4 = 0 | MAPKAPK2 = 0 | MKNK1 = 0 | NTRK2 = 0 | NTRK3 = 0 | PAK4 = 0 | PBK 0 | PDGFRB 0 | PDK1 = 0
